PubChem BioAssay AID743255 (National Center for Advancing Translational Sciences (NCATS), 2014)
Among all 390,000 compounds or so, about 910 (0.23%) were called active. Inconclusive results, whose numbers are uncertain, are shown with a selection of clear calls. The call rests on the fitted dose curve; in most records, active means well fitted inhibition curve with a large enough effect; inconclusive means small, poorly fitted or top-dose-only effect; inactive means no such curve, though single readings can be large or run the other way. Potencies of inconclusive entries are doubtful fits and often do not repeat.

By UniProt entry, the sequences of proteins in these tests, tags left out. Where a name states a change or a piece, a line headed by the entry shows the natural chain unless it says otherwise.
UniProt O94782: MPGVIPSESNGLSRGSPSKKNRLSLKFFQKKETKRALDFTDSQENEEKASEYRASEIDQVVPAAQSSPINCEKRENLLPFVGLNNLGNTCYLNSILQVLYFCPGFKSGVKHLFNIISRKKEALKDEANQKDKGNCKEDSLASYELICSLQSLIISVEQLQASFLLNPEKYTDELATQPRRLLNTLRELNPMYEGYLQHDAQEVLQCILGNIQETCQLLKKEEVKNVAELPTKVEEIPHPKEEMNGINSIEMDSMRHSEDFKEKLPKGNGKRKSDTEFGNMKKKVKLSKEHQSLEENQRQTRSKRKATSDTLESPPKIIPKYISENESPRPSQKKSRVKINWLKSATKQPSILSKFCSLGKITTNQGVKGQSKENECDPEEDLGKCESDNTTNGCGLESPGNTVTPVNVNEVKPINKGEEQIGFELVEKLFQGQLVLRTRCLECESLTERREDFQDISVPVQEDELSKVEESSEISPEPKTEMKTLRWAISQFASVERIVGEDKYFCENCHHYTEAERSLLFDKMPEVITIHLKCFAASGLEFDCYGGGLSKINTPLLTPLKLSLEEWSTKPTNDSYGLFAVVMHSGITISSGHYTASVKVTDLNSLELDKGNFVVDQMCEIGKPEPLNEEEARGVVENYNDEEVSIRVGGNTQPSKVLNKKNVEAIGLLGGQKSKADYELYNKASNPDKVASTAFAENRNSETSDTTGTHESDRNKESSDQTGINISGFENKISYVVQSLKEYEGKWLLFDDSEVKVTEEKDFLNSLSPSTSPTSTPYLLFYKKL

biological target: Ubiquitin carboxyl-terminal hydrolase 1 (Homo sapiens) (UniProt O94782); assay: Inhibitors of USP1/UAF1: Primary Screen; details: recombinant USP1/UAF1, Ub-Rhodamine cleavage fluorescence; activity change, negative = inhibition: at 57.1 µM (top of the series); further: nearly all actives have a fitted effect of over 60% in size
Summary of the method: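 USP1/UAF1 complex at 1 nM was preincubated with compound for 15 min at room temperature, then Ub-Rho substrate (150nM final) was added. Fluorescence (480/540 nm) was read kinetically, 6 reads every 60 seconds.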
On the % scale 0 is the no-effect control and ±100 the full control effect; potency means the concentration at half of the fitted maximal effect.

| Compound | activity change, negative = inhibition | Potency |
| --- | --- | --- |
| Cc1sc2nc3c4ccccc4c(NCc4ccco4)nn3c(=O)c2c1C | inactive: -16.1% |  |
| CCOC(=O)c1c(C)c(C)n(Cc2cccc(OC)c2OC)c1C | inactive: -13.6% |  |
| O=C(CSc1oc(-c2ccco2)nc1S(=O)(=O)c1ccccc1)c1ccc(Cl)cc1 |  | inconclusive: 7.08 µM [inhibitor, single point] |
| CC(C)CN(C(=O)CN1CCN(S(=O)(=O)c2ccc3ccccc3c2)CC1)c1c(N)n(CC(C)C)c(=O)[nH]c1=O |  | inconclusive: 28.2 µM [inhibitor, partial curve] |
| CCCCN(CCCNC(=O)C1CCN(S(=O)(=O)CC)CC1)c1ccccc1 |  | inconclusive: 31.6 µM [inhibitor, single point] |
| Cc1[nH]n(-c2ccccc2)c(=O)c1C(c1ccc(O)c([N+](=O)[O-])c1)c1c(C)[nH]n(-c2ccccc2)c1=O | inactive: -16.9% |  |
| COc1cccc(CNCCSc2nnnn2C)c1OCc1ccc(Cl)cc1 | inactive: -28% |  |
| O=C(Nc1ccc(N2CCN(C(=O)c3ccc(Cl)cc3)CC2)cc1)c1cc2ccccc2o1 | inactive: -3.56% |  |
| COC(=O)[C@H](Cc1ccccc1)NC(=O)N(C)Cc1ccccc1 |  | inconclusive: 0.316 µM [inhibitor, full curve, poor fit] |
| COc1ccc(NC(=O)c2c[nH]n3c(=O)cc(C4CCN(C(=O)OC(C)(C)C)CC4)nc23)cc1Cl |  | inconclusive: 35.5 µM [inhibitor, partial curve] |
| Cc1ccc(-n2c(-c3ccco3)nc3c(cnn3-c3ccc(C)cc3)c2=O)cc1 |  | inconclusive: 39.8 µM [inhibitor, single point] |
| CC1=C(C(=O)OCC2CCCCC2)C(c2cccc(F)c2F)CC(=O)N1 (centres undefined) |  | inconclusive: 0.708 µM [inhibitor, full curve] |
| CCN(CC(=O)Nc1cc(S(=O)(=O)N2CCCCC2)ccc1C)Cc1ccccc1 |  | inconclusive: 10 µM [inhibitor, partial curve] |
| c1ccc(Nc2nc(NCC3CCCO3)c3ccccc3n2)cc1 (centres undefined) |  | inconclusive: 11.2 µM [inhibitor, full curve, poor fit] |
| COc1ccc(-n2cc(-c3ccccc3)c3c(NCCc4ccc(OC)c(OC)c4)ncnc32)cc1 | inactive: -21% |  |
| C[C@@H]1CN([C@H](C)CO)S(=O)(=O)c2ccc(Br)cc2O[C@@H]1CN(C)C(=O)CN1CCOCC1 |  | inconclusive: 0.282 µM [inhibitor, full curve] |
| O=C(Nc1ccc(Cl)cc1)C(Cl)C(=O)c1ccccc1 (centres undefined) |  | inconclusive: 50.1 µM [inhibitor, partial curve, poor fit] |
| O=C(COC(=O)c1ccc([N+](=O)[O-])o1)Nc1ccc2c(c1)OCO2 |  | inconclusive: 35.5 µM [inhibitor, partial curve] |
| CCOc1ccc(S(=O)(=O)NCC(c2ccc(N(C)C)cc2)N2CCc3ccccc32)cc1 (centres undefined) |  | inconclusive: 39.8 µM [inhibitor, single point] |
| COc1cc(C(=O)NCC(=O)N/N=C/c2ccccn2)cc(OC)c1OC |  | inconclusive: 35.5 µM [inhibitor, partial curve, poor fit] |
| CCCCN(C)S(=O)(=O)c1cc(-c2cc(C)no2)ccc1C |  | inconclusive: 100 µM [inhibitor, partial curve, poor fit] |
| Cc1sc2nc(-c3ccccn3)[nH]c(=O)c2c1-c1ccccc1 | inactive: -16.3% |  |

| Compound | activity change, negative = inhibition | Potency |
| --- | --- | --- |
| CCC(=O)N1CCc2cc(Br)cc(S(=O)(=O)N(CC)Cc3ccccc3)c21 |  | inconclusive: 0.316 µM [inhibitor, full curve, poor fit] |
| COc1ccc(OC)c(NC(=O)N(C)CCc2c(C)nn(C)c2C)c1 | inactive: -21.5% |  |
| CCCCn1c(-c2cccc3ccccc23)nc2cc3[nH]c(=O)c(C(C)C)nc3cc21 |  | inconclusive: 17.8 µM [inhibitor, partial curve] |
| O=C(CNC(=O)c1ccc(F)cc1)c1ccc(Cl)cc1 |  | inconclusive: 1.78 µM [inhibitor, partial curve] |
| COc1cc(Cl)ccc1NC(=S)N(CCCN1CCOCC1)Cc1cn(C)c2ccccc12 | inactive: -17.2% |  |
| CCOC(=O)c1c(NC(=O)COC(=O)c2ccc(Cl)nc2)sc(C)c1C |  | inconclusive: 8.91 µM [inhibitor, partial curve, poor fit] |
| O=C(Nc1ccc(F)c(Cl)c1)N1CCC(CN2CCc3ccccc3C2)CC1 |  | inconclusive: 39.8 µM [inhibitor, partial curve, poor fit] |
| CCOC(=O)c1c(C)nsc1NC(=O)c1ccco1 | inactive: -9.61% |  |
| COc1ccccc1NS(=O)(=O)c1ccc(C(=O)NCc2ccc(S(N)(=O)=O)cc2)cc1 | inconclusive: -5.59% [inhibitor] |  |
| COC(=O)c1ccccc1-n1cc2c(c1-c1cccc(C)c1)c(=O)n(C)c(=O)n2C | inactive: -1.82% |  |
| COc1ccc(NCc2nnc(SCC(=O)Nc3cc(C)cc(C)c3)o2)cc1 |  | inconclusive: 50.1 µM [inhibitor, partial curve] |
| Cc1ccc(Nc2nc3nonc3[nH]c2=O)cc1Cl |  | inconclusive: 50.1 µM [inhibitor, partial curve, poor fit] |
| CCOc1c(Br)cc(CNC2CCCCCCC2)cc1OC | inactive: -10.4% |  |
| CC1CCN(c2ccc3c(c2)S(=O)(=O)c2cccc(C(=O)NC4CC4)c2C3=O)CC1 |  | inconclusive: 39.8 µM [inhibitor, partial curve] |
| Cc1ccc(CNC(=O)c2ccc(-c3nc(CS(=O)(=O)c4ccc(C)cc4)c(C)o3)cc2)cc1 |  | inconclusive: 0.562 µM [inhibitor, full curve, poor fit] |
| CCOc1ccc(C(C)NC(=O)Nc2ccc(F)cc2F)cc1 (centres undefined) | inactive: -26.6% |  |
| O=C1CCNc2ccc(-c3ccccc3)cc21 |  | inconclusive: 15.8 µM [inhibitor, partial curve] |
| CCOc1ccc(CCNC(=O)c2cc3sc(CC)cc3n2C)cc1OCC |  | inconclusive: 31.6 µM [inhibitor, partial curve] |
| O=C1Nc2ccc(Br)cc2C1=C1CCCCC1 | inactive: -21.9% |  |
| Cc1ccnc(NS(=O)(=O)c2ccc(NC(=O)c3nc(SC(C)C)ncc3Cl)cc2)n1 |  | inconclusive: 224 µM [inhibitor, partial curve, poor fit] |
| O=S(=O)(c1ccc(OCC(O)CN2CCC(Cc3ccccc3)CC2)cc1)N1CCOCC1 (centres undefined) |  | inconclusive: 56.2 µM [inhibitor, single point] |
| O=C(Cc1cccc2ccccc12)Nc1ccc(OC(F)F)c(Cl)c1 |  | inconclusive: 28.2 µM [inhibitor, partial curve, poor fit] |

Quoted from the listing, 3 compounds:

| Compound | activity change, negative = inhibition | Potency |
| --- | --- | --- |
| COc1ccccc1NS(=O)(=O)c1ccc(C(=O)NCc2ccc(S(N)(=O)=O)cc2)cc1 | inconclusive: -5.59% [inhibitor] |  |
| COC(=O)c1ccccc1-n1cc2c(c1-c1cccc(C)c1)c(=O)n(C)c(=O)n2C | inactive: -1.82% |  |
| COc1ccc(NCc2nnc(SCC(=O)Nc3cc(C)cc(C)c3)o2)cc1 |  | inconclusive: 50.1 µM [inhibitor, partial curve] |

(next part)

| Compound | activity change, negative = inhibition | Potency |
| --- | --- | --- |
| COC(=O)[C@H]1C[C@H]1[C@@H](NC(=O)c1cccnc1)c1ccccc1 |  | inconclusive: 35.5 µM [inhibitor, partial curve] |
| CCOC(=O)C1CCCN(C(=O)c2[nH]c3ccccc3c2Sc2ccc(Cl)cc2)C1 (centres undefined) |  | inconclusive: 35.5 µM [inhibitor, single point] |
| CCC(C)(C)C1CCc2c(sc(NC(=O)c3ccccc3C(=O)O)c2C#N)C1 (centres undefined) |  | inconclusive: 50.1 µM [inhibitor, partial curve, poor fit] |
| Cc1nc2ccccn2c1/C(O)=C1\C(=O)C(=O)N(CCN(C)C)C1c1ccco1 (centres undefined) | inactive: -20.2% |  |
| O=C(C[C@@H]1C/C=C/CCCC(=O)O[C@H](c2ccccc2)CNC1=O)NCCO |  | inconclusive: 7.94 µM [inhibitor, partial curve] |
| CC(C)(C)c1ccc(C(=O)NCc2ccc(Cl)cc2)cc1 |  | inconclusive: 0.447 µM [inhibitor, full curve, poor fit] |
| Cn1c(=O)c(C(=O)NNC(=O)c2cccc(Cl)c2)c(O)c2ccccc21 |  | inconclusive: 56.2 µM [inhibitor, partial curve, poor fit] |
| COc1ccc(NC(=O)NC(C)c2c(-n3cccc3)sc3c2CCN(C)C3)c(OC)c1 (centres undefined) |  | inconclusive: 0.631 µM [inhibitor, full curve, poor fit] |
| C[C@H](NC(=O)c1cc2c(cn1)[nH]c1ccccc12)C(=O)O |  | inconclusive: 28.2 µM [inhibitor, partial curve] |
| O=C(NCc1cccc(Cl)c1)C1CCCN(c2ncnc3onc(-c4ccc(F)cc4)c23)C1 (centres undefined) | inactive: -9.22% |  |
| CCOc1ccc(NC(=O)c2c(NC(=O)c3cccs3)sc3c2CCC(C(C)(C)C)C3)cc1 (centres undefined) |  | inconclusive: 0.251 µM [inhibitor, full curve, poor fit] |
| Cc1onc(-c2ccccc2Cl)c1C(=O)N1CCN(c2cccc(Cl)c2)CC1 |  | inconclusive: 50.1 µM [inhibitor, single point] |
| Brc1ccc2nc(SCCOc3ccccc3)[nH]c2c1 |  | inconclusive: 5.62 µM [inhibitor, full curve, poor fit] |
| O=C(O)c1ccc(Cl)c(NC(=O)C2CCN(S(=O)(=O)c3ccc4c(c3)OCCO4)CC2)c1 |  | inconclusive: 15.8 µM [inhibitor, partial curve, poor fit] |
| CCOc1ccc(OCC(=O)OCn2c(SC)nnc(C)c2=O)cc1 | inactive: -14.7% |  |
| Cc1ccc2oc(-c3cc(NC(=O)/C=C/c4ccco4)ccc3Cl)nc2c1 |  | inconclusive: 3.16 µM [inhibitor, full curve, poor fit] |
| COc1cccc(CNC(=O)Cn2c(C)c3cnn(-c4ccccc4)c(=O)c3c2C)c1 | inactive: -10.9% |  |
| CCCN(C(=O)Cn1cc(S(=O)(=O)N2CCN(c3ccccc3F)CC2)c2ccccc2c1=O)c1cccc(C)c1 |  | inconclusive: 0.708 µM [inhibitor, full curve] |
| COc1cccc(CNC(=O)c2cc3c(cc2Cl)N2CCCCCC2=NS3(=O)=O)c1 | inactive: -16.7% |  |
| O=C(NCC(=O)N1CCc2ccccc2C1)c1ccccc1Cl |  | inconclusive: 0.631 µM [inhibitor, full curve, poor fit] |
